Amino acid sequences for entries named in this document (tags omitted). Chains listed by the source or under a name are the forms on record and can include a tag or linker. Residues count along the entry.
UniProt Q08775, other isoform, or with tags, fused parts or gaps: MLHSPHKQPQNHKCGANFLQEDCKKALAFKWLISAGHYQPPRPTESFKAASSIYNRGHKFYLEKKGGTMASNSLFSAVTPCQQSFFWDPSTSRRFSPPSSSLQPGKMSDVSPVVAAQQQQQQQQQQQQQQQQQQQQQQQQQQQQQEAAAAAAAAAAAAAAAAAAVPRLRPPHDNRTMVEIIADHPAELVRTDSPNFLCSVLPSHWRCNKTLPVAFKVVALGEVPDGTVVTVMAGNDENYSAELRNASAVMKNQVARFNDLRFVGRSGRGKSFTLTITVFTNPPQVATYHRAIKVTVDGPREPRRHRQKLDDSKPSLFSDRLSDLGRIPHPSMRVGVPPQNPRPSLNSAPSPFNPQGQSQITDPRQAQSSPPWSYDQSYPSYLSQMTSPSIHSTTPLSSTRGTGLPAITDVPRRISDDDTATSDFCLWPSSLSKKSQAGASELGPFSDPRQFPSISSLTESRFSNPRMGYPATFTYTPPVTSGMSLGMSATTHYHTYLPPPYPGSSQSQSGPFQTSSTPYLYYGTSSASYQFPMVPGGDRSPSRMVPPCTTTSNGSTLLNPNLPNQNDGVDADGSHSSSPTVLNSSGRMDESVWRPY
UniProt Q08775, 188-607, stated change not applied: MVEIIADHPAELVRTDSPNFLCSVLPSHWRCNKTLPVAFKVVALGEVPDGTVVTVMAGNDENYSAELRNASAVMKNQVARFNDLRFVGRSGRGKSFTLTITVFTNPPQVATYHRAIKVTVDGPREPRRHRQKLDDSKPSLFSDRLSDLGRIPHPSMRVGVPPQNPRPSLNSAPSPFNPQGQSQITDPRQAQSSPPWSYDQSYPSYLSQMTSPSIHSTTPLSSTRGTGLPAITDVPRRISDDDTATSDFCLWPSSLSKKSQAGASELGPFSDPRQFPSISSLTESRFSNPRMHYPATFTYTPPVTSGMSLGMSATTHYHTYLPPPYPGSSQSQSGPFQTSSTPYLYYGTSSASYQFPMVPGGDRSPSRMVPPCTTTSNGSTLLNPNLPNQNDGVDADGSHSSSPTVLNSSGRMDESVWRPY
UniProt Q08775, 99-607, stated change not applied: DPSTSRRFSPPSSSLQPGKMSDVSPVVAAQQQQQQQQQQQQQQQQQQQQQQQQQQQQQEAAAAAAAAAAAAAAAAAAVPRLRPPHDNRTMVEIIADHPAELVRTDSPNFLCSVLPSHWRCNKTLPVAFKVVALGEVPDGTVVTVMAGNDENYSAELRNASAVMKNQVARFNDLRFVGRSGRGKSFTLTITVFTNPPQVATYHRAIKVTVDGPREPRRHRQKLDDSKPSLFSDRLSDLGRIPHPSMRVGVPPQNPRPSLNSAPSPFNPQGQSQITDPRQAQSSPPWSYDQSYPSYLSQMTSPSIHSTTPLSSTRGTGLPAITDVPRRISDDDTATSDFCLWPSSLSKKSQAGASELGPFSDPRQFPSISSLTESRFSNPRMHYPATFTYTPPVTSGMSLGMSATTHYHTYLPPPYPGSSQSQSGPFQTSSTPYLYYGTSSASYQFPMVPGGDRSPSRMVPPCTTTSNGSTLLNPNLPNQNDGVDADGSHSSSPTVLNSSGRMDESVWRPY
UniProt Q08775, 118-607, stated change not applied: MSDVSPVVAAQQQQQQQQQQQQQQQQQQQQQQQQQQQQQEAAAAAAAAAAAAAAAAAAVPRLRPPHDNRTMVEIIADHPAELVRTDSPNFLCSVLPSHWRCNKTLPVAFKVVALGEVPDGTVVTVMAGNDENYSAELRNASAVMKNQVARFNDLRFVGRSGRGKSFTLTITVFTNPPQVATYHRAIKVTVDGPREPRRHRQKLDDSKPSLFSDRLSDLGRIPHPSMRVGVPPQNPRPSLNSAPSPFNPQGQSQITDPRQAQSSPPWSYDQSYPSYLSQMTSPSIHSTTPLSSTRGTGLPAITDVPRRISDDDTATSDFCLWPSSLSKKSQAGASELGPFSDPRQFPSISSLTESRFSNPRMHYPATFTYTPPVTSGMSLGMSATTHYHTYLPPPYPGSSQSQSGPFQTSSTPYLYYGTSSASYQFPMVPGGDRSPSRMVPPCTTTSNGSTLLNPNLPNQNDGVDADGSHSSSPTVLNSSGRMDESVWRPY
UniProt Q08775, 80-607: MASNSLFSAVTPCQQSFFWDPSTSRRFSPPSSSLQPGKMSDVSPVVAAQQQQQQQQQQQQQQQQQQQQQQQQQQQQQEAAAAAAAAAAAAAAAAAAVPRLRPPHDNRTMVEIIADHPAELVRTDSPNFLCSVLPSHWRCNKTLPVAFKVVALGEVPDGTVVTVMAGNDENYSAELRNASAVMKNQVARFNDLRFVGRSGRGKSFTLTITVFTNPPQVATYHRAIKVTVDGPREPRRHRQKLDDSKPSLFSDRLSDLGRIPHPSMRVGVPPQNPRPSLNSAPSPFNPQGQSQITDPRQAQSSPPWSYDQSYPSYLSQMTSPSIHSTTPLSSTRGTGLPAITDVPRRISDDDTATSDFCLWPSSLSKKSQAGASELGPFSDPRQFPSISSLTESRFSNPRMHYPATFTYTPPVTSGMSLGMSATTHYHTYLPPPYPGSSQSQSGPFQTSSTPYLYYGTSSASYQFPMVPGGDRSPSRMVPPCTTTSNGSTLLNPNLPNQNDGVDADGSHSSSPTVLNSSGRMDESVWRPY

In patent US6518063:

Legend:
[1] = biological target: His-Osf2/Cbfa1 (Mus musculus) (UniProt Q08775); experiment: EMSA; details: purified recombinant protein, protein details: N-terminal 6xHis (pV2a), E. coli, Ni resin, label: 32P
[2] = biological target: Osf2 delta1-108 deletion 1-108 (Mus musculus) (UniProt Q08775); experiment: binding assay; details: stated capable of binding OSE2; method not stated; protein in cells; label: 32P
[3] = biological target: Osf2 delta82-96 (Mus musculus) (UniProt Q08775); experiment: binding assay; details: stated capable of binding OSE2; method not stated; protein in cells; label: 32P
[4] = biological target: Osf2 delta1-19 deletion 1-19 (Mus musculus) (UniProt Q08775); experiment: binding assay; details: stated capable of binding OSE2; method not stated; protein in cells; label: 32P
[5] = biological target: Osf2 delta1-38 deletion 1-38 (Mus musculus) (UniProt Q08775); experiment: binding assay; details: stated capable of binding OSE2; method not stated; protein in cells; label: 32P
[6] = biological target: Osf2 delta49-96 (QA deletion) (Mus musculus) (UniProt Q08775); experiment: binding assay; details: stated capable of binding OSE2; method not stated; protein in cells; label: 32P
[7] = biological target: Osf2 delta(1-38,82-96) deletion 1-38 and 82-96 (Mus musculus) (UniProt Q08775); experiment: binding assay; details: stated capable of binding OSE2; method not stated; protein in cells; label: 32P
[8] = biological target: Osf2 delta89-96 (Mus musculus) (UniProt Q08775); experiment: binding assay; details: stated capable of binding OSE2; method not stated; protein in cells; label: 32P
[9] = biological target: Osf2/Cbfa1 (Mus musculus) (UniProt Q08775); experiment: activity in cells; details: p4OSE2alpha1(I)-luc, COS cells; protein in cells; protein details: pCMV5 expression; only the site is given
[10] = variant of Osteocalcin (OG2) OSE2

Row | Sequence | binding result [1] | binding result [1, 10] | other results
1 | AAATTTAGACTCCAACCTCAGCA (double strand) [Bsp OSE2] | binds |  | 
2 | AGCTGCAATCACCAAACACAGCA (double strand) [OSE2 mutant 6] |  | no binding | 
3 | AGCTGCAATCACCAACCACAGCA (double strand) [Osteocalcin (OG2) OSE2] |  |  | binding result ([1]; 20 mM Tris pH 8, 10 mM NaCl, 3 mM EGTA, poly(dI.dC), RT, abolished by anti-Cbfa antiserum): binds; binding result [2]: binds; binding result [3]: binds; binding result [4]: binds; binding result [5]: binds; binding result [6]: binds; binding result [7]: binds; binding result [8]: binds
4 | AGCTGCAATCACCAACCAGAGCA (double strand) [OSE2 mutant 7] |  | no binding | 
5 | AGCTGCAATCACCAGACACAGCA (double strand) [OSE2 mutant 4] |  | no binding | 
6 | AGCTGCAATCACCAGCCACAGCA (double strand) [OSE2 mutant 5] |  | no binding | 
7 | AGCTGCAATCACCGGCCACAGCA (double strand) [OSE2 mutant 3] |  | no binding | 
8 | AGCTGCAATCACGTACCACAGCA (double strand) [OSE2 mutant 2] |  | no binding | 
9 | AGCTGCACGATCCAACCACAGCA (double strand) [OSE2 mutant 1] |  |  | binding result ([1]; mutation outside core, binding unaffected, variant of Osteocalcin (OG2) OSE2): binds
10 | CCCTTCCCACACCACCCACACAG (double strand) [alpha1(I) collagen OSE2] | binds |  | activity on this sequence [9]: active
11 | CGCCGCAATCACCTACCACAGCA (double strand) [OG1 OSE2] | binds |  | 
12 | CGCTCTTTGTGCAAACCACACAG (double strand) [Osteopontin OSE2] | binds |  | 

For some assays here: The exact form of at least one protein or probe is not confirmed. For some assays here: Negatives hold for the conditions tested. For some assays here: Where cells or extracts were used, other partners may take part.
